No constants are given. Whether binding was seen depends on the method and setting. Binding seen in cells or lysates may run through a third protein. A result given as binding can be weak or reduced; the word gives no strength. For some assays here: Where a sequence is shown, tags or fusion partners need not be part of it. One block for each molecule: values may come before it.
Tests used:
α-SNAP-Flag (human) = target: T1, α-SNAP-Flag (human) (UniProt P54920); test: co-IP
T1 sequence: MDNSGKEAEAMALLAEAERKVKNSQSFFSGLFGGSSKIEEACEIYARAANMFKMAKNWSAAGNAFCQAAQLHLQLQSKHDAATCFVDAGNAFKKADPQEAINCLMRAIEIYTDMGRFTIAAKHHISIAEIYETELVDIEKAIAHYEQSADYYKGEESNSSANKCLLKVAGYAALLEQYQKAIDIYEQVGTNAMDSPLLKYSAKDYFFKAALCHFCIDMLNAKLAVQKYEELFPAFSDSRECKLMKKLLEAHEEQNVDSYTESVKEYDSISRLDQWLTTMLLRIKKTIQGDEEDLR

Protein sequences, listed by entry. Tags and fused reporters are not part of them. Lines headed by an entry give the natural chain unless they say otherwise; changes in a name come on top.
UniProt P09958: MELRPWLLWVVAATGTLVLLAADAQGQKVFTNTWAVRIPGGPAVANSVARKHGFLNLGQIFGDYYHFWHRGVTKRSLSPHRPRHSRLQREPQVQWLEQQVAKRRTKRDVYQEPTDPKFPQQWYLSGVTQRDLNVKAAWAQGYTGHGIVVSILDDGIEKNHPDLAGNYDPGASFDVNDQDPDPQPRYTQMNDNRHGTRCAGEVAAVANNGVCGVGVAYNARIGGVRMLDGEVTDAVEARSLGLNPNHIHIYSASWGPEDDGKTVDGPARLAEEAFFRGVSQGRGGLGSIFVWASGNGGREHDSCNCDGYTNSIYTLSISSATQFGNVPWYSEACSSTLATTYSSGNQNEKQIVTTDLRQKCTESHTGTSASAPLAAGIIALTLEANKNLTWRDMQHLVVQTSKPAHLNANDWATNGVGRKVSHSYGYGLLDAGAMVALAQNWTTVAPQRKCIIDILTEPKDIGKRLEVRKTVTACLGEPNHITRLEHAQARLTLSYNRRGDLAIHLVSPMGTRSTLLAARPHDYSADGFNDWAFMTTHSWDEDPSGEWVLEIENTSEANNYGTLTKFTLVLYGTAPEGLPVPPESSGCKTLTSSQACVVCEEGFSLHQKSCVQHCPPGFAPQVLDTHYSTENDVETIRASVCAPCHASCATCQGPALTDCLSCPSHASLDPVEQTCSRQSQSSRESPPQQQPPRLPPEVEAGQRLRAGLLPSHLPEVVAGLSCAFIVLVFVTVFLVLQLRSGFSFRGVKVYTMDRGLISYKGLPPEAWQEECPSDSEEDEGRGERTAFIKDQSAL

furin-VN (human) = furin-VN (human) (UniProt P09958); test: split reporter; BiFC (split Venus) of α-SNAP-VC and furin-VN cotransfected into HEK293 cells; fixed at 24 h; confocal microscopy with GOLGA5 or calnexin staining

binding (α-SNAP-Flag (human)): binds
Molecule: furin-hemagglutinin (from UniProt P09958) (enzyme)

binding (furin-VN (human)): binds
B1: α-SNAP-VC (protein, UniProt P54920 1-295)
chain: T1 sequence

— publication PMC8749436
